Among the data in publication PMC3225811 are binding values, retold here.

Sequences of proteins named here, by UniProt entry; tags and fusion partners are left off.
UniProt Q61656: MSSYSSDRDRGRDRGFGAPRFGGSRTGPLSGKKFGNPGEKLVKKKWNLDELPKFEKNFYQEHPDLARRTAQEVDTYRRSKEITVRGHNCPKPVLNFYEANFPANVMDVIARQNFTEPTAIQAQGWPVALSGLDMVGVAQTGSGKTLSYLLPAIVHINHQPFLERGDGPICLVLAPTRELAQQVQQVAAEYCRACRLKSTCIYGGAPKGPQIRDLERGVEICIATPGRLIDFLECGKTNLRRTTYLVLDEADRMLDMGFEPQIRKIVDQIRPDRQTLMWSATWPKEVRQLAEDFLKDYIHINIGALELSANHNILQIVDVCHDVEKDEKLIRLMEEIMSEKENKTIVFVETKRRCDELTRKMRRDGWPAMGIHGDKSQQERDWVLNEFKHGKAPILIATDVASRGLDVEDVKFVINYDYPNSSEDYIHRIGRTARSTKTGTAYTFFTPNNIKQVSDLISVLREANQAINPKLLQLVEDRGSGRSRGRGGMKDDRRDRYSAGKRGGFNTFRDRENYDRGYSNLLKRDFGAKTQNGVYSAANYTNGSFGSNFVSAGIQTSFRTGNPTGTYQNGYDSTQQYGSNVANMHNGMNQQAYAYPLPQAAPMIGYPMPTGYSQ
UniProt Q501J6: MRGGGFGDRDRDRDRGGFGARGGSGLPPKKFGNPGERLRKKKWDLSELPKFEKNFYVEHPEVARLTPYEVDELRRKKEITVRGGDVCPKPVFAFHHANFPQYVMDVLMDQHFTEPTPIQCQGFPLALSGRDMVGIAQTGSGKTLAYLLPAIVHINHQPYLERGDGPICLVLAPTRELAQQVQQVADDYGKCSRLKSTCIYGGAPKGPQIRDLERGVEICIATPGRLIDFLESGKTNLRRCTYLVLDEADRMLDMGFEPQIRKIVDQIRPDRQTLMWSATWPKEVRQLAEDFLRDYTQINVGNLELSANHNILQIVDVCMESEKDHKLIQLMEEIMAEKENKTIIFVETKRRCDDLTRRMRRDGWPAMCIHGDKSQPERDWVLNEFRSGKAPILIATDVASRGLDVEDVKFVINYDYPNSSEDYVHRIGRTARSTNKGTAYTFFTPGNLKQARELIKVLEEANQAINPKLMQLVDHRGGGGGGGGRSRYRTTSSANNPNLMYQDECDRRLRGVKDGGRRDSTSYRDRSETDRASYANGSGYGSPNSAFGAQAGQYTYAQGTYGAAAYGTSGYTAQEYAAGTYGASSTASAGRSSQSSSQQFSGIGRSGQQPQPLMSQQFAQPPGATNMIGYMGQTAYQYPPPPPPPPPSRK
UniProt O70133: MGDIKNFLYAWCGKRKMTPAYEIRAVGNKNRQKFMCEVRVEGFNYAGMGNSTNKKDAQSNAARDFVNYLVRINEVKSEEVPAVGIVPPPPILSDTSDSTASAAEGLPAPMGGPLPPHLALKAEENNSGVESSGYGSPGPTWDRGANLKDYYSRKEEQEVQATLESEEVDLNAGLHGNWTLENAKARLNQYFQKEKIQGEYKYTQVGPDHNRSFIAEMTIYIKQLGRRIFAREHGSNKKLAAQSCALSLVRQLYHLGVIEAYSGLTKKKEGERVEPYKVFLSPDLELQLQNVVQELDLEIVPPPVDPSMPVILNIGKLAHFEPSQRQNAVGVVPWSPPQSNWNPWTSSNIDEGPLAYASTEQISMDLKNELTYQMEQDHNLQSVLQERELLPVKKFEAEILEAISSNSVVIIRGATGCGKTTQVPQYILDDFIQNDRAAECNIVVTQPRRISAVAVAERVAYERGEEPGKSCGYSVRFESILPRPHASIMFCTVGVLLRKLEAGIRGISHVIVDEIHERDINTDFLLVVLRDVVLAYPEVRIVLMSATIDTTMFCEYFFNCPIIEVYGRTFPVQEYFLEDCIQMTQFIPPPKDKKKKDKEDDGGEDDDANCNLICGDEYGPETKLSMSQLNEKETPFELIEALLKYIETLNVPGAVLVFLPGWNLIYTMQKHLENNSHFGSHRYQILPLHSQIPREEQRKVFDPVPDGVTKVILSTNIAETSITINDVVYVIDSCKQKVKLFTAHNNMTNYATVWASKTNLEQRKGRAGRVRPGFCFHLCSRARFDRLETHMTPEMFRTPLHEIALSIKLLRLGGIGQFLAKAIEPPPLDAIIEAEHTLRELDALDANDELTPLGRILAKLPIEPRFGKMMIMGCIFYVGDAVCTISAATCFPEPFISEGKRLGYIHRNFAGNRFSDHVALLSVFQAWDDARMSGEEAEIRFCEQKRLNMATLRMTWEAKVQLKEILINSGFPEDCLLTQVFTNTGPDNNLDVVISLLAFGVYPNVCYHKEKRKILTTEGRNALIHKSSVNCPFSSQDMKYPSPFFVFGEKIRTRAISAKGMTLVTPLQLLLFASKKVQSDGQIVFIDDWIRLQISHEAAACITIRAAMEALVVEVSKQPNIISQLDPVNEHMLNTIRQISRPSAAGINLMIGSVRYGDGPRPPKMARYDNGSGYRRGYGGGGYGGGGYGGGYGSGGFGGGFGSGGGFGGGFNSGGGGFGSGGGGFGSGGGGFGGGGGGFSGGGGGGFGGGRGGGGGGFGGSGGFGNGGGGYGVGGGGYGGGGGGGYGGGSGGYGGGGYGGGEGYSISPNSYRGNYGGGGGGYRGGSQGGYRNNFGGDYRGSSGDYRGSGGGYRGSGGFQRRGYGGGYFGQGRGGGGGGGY

In test [1] the target is p68 (Ddx5), endogenous in mouse liver (mouse (endogenous in liver)) (UniProt Q61656). Kind of test: co-IP; endogenous proteins; mouse liver lysate in buffer B, incubated with RNase A; 2 mg lysate with 3 ug p68 or p72 antibody and protein G sepharose; immunoblot for Dhx9.
For test [2], the target named is p72 (Ddx17), endogenous in mouse liver (mouse (endogenous in liver)) (UniProt Q501J6). The description is as above.

No constants are given. Whether binding was seen depends on the method and setting. In cells and extracts the contact can be indirect. Some results given as binding are weak or reduced against the parent protein; the word gives no strength.

As for “RNA helicase A (Dhx9), endogenous in mouse liver (from UniProt O70133 1-1380)”, the binding entry in test [1] and in test [2] was “binds” each time.
